Assay results from PubChem BioAssay AID504834 (National Center for Advancing Translational Sciences (NCATS), 2011).
Screen size: about 320,000 compounds; about 22,000 (6.9%) were called active. The inconclusive results got no clear call from the source; some entries with a clear call stand among them for comparison. The call rests on the fitted dose curve; in most records, active means well fitted inhibition curve with a large enough effect; inconclusive means small, poorly fitted or top-dose-only effect, or another doubt; inactive means no such curve, though single readings can be large or run the other way. Potencies of inconclusive entries are doubtful fits and often do not repeat.
Potency means the concentration at half of the fitted maximal effect.

Test: Primary qHTS for delayed death inhibitors of the malarial parasite plastid, 96 hour incubation
Details: P. falciparum luciferase reporter growth; series mostly up to 28.7 µM
In short: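 Luminescence readout: decreased luciferase signal marks inhibited growth of reporter-expressing P. falciparum in infected red cells (2% hematocrit, 0.05% parasitemia final), exposed to compound two generations (96 h, 37 C, 5% CO2).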
In the case of `Clc1ccc(-c2nc(-c3cc4cc(Cl)ccc4o3)cs2)cc1`, the Potency is reported as “inactive”. For `Cc1ccccc1OCCC(=O)N1CCN(S(=O)(=O)c2ccc(Cl)cc2)CC1`, the Potency was inconclusive: 6.57 µM [inhibitor, partial curve]. With `O=C(Nc1ccc(S(=O)(=O)N2CCOCC2)cc1)c1ccc(CN2CCc3ccccc3C2)cc1` the Potency was “inactive”. In the case of `COc1cccc(/C=C2\N=C(C3CCCCC3)OC2=O)c1OC`, the Potency is reported as inconclusive: 9.28 µM [inhibitor, partial curve, poor fit]. For `CCc1cccc(NC(=O)Cn2c3[n+](c4ccc(C(F)(F)F)cc42)CCCCC3)c1`, the Potency was active: 1.04 µM. For `O=C(Cn1ccc2cc(S(=O)(=O)N3CCCC3)ccc21)NCc1ccco1`, the Potency was inconclusive: 11.7 µM [inhibitor, partial curve]. For `COc1cc2c(cc1OC)C1O[C@](c3ccsc3)(C2)Oc2cc(C)n(Cc3ccccc3)c(=O)c21`, the Potency was inconclusive: 2.13 µM [inhibitor, partial curve, poor fit]. With `CC(C)C[C@H](NC(=O)NCc1ccc(Cl)cc1)C(=O)O` the Potency was “inactive”. With `CCOC(=O)c1c(CN2CCOCC2)n(-c2ccccc2)c2ccc(O)cc12` the Potency was “inactive”. With `O=C(N/N=C/c1ccc(OC(F)F)cc1OC(F)F)c1ccc(Br)cc1` the Potency was inconclusive: 11.7 µM [inhibitor, single point]. With `COc1ccccc1-c1cc(C(F)(F)F)nc(N2CCCCC2)n1` the Potency was inconclusive: 20.8 µM [inhibitor, single point]. With `CCOC(=O)C(C)(C)N(Cc1ccc(Cl)cc1)S(=O)(=O)c1ccc(Cl)c([N+](=O)[O-])c1` the Potency was inconclusive: 11.7 µM [inhibitor, single point]. For `O=C(Nc1ccc(Br)cc1)c1cnccn1`, the Potency was “inactive”. For `O=C(c1cccc(F)c1)N1CCN(c2ccc([N+](=O)[O-])c(N3CCCCC3)c2)CC1`, the Potency was inconclusive: 2.94 µM [inhibitor, full curve]. For `Cc1ccc(C(=O)NC2CCN(S(=O)(=O)c3ccccc3)CC2)cc1`, the Potency was inconclusive: 11.7 µM [inhibitor, partial curve]. With `O=C(CNC1CCCCC1)Nc1cccc(C(F)(F)F)c1` the Potency was active: 9.28 µM. For `CCOC(=O)C1=C(C)NC(C)=C(C(=O)OCC)C1C(=O)OCC(=O)N(C)C`, the Potency was “inactive”. For `CC1CCCN(c2nc3c(c(=O)[nH]c(=O)n3C)n2CCCc2ccccc2)C1` (stereo not drawn), the Potency was inconclusive: 9.28 µM [inhibitor, partial curve]. With `COc1ccc(-c2cn3cccnc3n2)cc1NC(=O)c1cc(OC)c(OC)c(OC)c1` the Potency was inconclusive: 1.65 µM [inhibitor, partial curve, poor fit]. For `COC(=O)c1ccc(Nc2ncnc3sccc23)cc1`, the Potency was “inactive”. In the case of `O=c1c2ccccc2c(C=NC2CCS(=O)(=O)C2)c(O)n1-c1ccccc1` (stereo not drawn), the Potency is reported as inconclusive: 10.4 µM [inhibitor, partial curve, poor fit]. For `NC(=O)c1ccc(NC(=O)CSc2nc3ccccc3c(=O)n2CCCN2CCOCC2)cc1`, the Potency was “inactive”. With `Cc1ccc(C(=O)Nc2cccc(C(F)(F)F)c2)cc1NC(=O)c1ccno1` the Potency was inconclusive: 18.5 µM [inhibitor, single point]. In the case of `CCN(C1CCCCC1)S(=O)(=O)c1cc2c3c(c1)CCN3C(=O)CC2`, the Potency is reported as “inactive”. For `Cc1noc(C)c1COc1ccccc1C(=O)NCCOc1ccccc1`, the Potency was inconclusive: 11.7 µM [inhibitor, single point]. With `CC#CCCCC(=O)Nc1ccc(C(=O)O)cc1` the Potency was inconclusive: 4.65 µM [inhibitor, partial curve, poor fit]. With `COc1ccc(CNC(=O)C2CCN(c3nn4c(=O)cc(C)nc4s3)CC2)cc1` the Potency was inconclusive: 4.15 µM [inhibitor, full curve, poor fit]. With `CCOC(=O)c1c(-c2ccc(C)o2)csc1NC(=S)NC(=O)N(C)C` the Potency was inconclusive: 20.8 µM [inhibitor, partial curve, poor fit]. In the case of `CN(CC(=O)Nc1ccc(F)cc1)C(=O)c1cccc(S(=O)(=O)N2CCN(c3ccccc3)CC2)c1`, the Potency is reported as inconclusive: 3.7 µM [inhibitor, single point]. With `O=C(COC(=O)c1ccc(O)cc1O)NC1CC1` the Potency was inconclusive: 10.4 µM [inhibitor, partial curve]. For `Cc1ccc(CN(C)C2CCN(C)CC2)cc1`, the Potency was inconclusive: 4.15 µM [inhibitor, single point]. With `Cc1ccc(C(C(=O)NC(C)(C)C)N(Cc2ccco2)C(=O)CCC(=O)Nc2ccccn2)cc1` (stereo not drawn) the Potency was inconclusive: 10.4 µM [inhibitor, single point]. For `CC(=O)c1ccc([N+](=O)[O-])c(CS(=O)(=O)c2ccccc2)c1`, the Potency was “inactive”. With `O=[N+]([O-])c1ccc(-c2nc(C(Cl)Cl)c3ccccc3n2)cc1` the Potency was inconclusive: 18.5 µM [inhibitor, single point]. For `CCCCN(CCCC)C1=Nc2ccccc2N/C1=C(/C#N)C(=O)OCC`, the Potency was inconclusive: 1.31 µM [inhibitor, full curve, poor fit]. With `CC[n+]1c(/C=C2\Sc3ccccc3N2C)ccc2cccc(C)c21` the Potency was “inactive”. In the case of `COc1cccc(CCN2CCC(CNS(=O)(=O)c3cc(-c4cc(C)no4)ccc3OC)CC2)c1`, the Potency is reported as active: 10.4 µM. For `CCC(=O)Nc1ccc(Br)c(Cl)c1`, the Potency was inconclusive: 18.5 µM [inhibitor, single point]. In the case of `Cc1cc(NCc2ccc(F)cc2Cl)n2nnnc2n1`, the Potency is reported as inconclusive: 18.5 µM [inhibitor, single point]. In the case of `CCN1C(=O)[C@@H]2[C@@H](c3ccc(-c4ccc(C(C)=O)cc4)c(OC)c3)N3CCCC[C@@]3(C(=O)OC)[C@@H]2C1=O`, the Potency is reported as active: 9.28 µM. In the case of `N#CC(c1ccccc1)c1ccc(C(=O)c2ccc(F)cc2)cc1` (stereo not drawn), the Potency is reported as inconclusive: 16.5 µM [inhibitor, single point]. With `COc1cc(CNCc2cccs2)ccc1OCc1cccs1` the Potency was inconclusive: 8.28 µM [inhibitor, partial curve]. For `CC(COc1ccccc1)N(CCCl)Cc1ccccc1` (stereo not drawn), the Potency was inconclusive: 4.78 µM [inhibitor, partial curve].
